Measured values: PubChem BioAssay AID504467 (National Center for Advancing Translational Sciences (NCATS), 2011)
Among all 330,000 compounds or so, about 7,700 (2.3%) were called active. This list was built around the results that the source calls inconclusive (neither active nor inactive); the mix of calls is not that of the screen. The call rests on the fitted dose curve; in most records, active means well fitted inhibition curve with a large enough effect; inconclusive means small, poorly fitted or top-dose-only effect, or effect the other way; inactive means flat fitted curve, though single readings scatter. Where the call is inconclusive, the potency comes from a doubtful curve fit.

Test: qHTS screen for small molecules that inhibit ELG1-dependent DNA repair in human embryonic kidney (HEK293T) cells expressing luciferase-tagged ELG1; further: nearly all actives have a fitted effect of over 55% in size
Settings: HEK293T ELG1-luciferase reporter, luminescence, 16 h, DNA damage induced by 5-fluorouridine; activity change, negative = inhibition: at 46.1 µM (top of the series)
How it was run: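 5-Fluorouridine DNA damage + compound/DMSO, 2,000 cells/well, 16 h, 37 °C/5% CO2. ONE-Glo, 30 min RT, luminescence. Readout = decrease in reporter signal.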
On the % scale 0 is the no-effect control and ±100 the full control effect; potency means the concentration at half of the fitted maximal effect.

SMILES | Potency | activity change, negative = inhibition
C/C(=N/NC(=O)CN1CCN(Cc2ccccc2Cl)CC1)c1cccnc1 | inconclusive: 7.3 µM [activator, partial curve, poor fit] | 
Cc1cccc(NC(=O)CNC(=O)Cc2ccc(S(=O)(=O)N3CCOCC3)s2)c1C |  | inactive: -1.13%
O=C(Nc1ccc2c(c1)nc1n2CCCCC1)c1cc(S(=O)(=O)N2CCOCC2)ccc1Cl | inconclusive: 10 µM [inhibitor, partial curve] | 
O=C(CN1c2cccc3cccc(c23)S1(=O)=O)NCc1ccc(Cl)cc1 | inconclusive: 29.1 µM [inhibitor, single point] | 
CC1=NOC(=O)/C1=C\c1ccc(-c2ccccc2Br)o1 | inconclusive: 29.1 µM [inhibitor, single point] | 
CCc1nc(NCCCCCO)c2nnn(Cc3ccccc3F)c2n1 | inconclusive: 23.1 µM [inhibitor, partial curve, poor fit] | 
CC(=O)c1ccc(OCC(O)CN(C)Cc2cccs2)cc1 (centres undefined) |  | inactive: -4.04%
COC(=O)c1ccc(NC(=O)CN2C(=O)NC3(CCC(C)CC3)C2=O)cc1 (centres undefined) |  | inactive: 2%
CCc1ccccc1NC(=O)Nc1cccc(F)c1 | inconclusive: 18.3 µM [inhibitor, partial curve, poor fit] | 
CS(=O)(=O)N1CCN(C(=O)c2cc(-c3cccnc3)nc3ccc(Cl)cc23)CC1 | inconclusive: 29.1 µM [inhibitor, single point] | 
O=C(NCCCN1CCOCC1)c1ccc(Sc2ccc(F)cc2)c([N+](=O)[O-])c1 |  | inactive: -3.5%
Cc1c(-n2c(SC(C)C(=O)NC(N)=O)nc3ccccc3c2=O)c(=O)n(-c2ccccc2)n1C (centres undefined) |  | inactive: -9.98%
COc1ccccc1CNCC(=O)Nc1cc(S(=O)(=O)N2CCOCC2)ccc1Cl | active: 20.6 µM | 
O=C(Nc1ccccc1C(=O)N/N=C/c1ccc(O)cc1)c1ccccc1 | inconclusive: 10.3 µM [activator, partial curve] | 
Cc1ccc(F)c(N=Cc2c(O)c3ccccc3oc2=O)c1 | inconclusive: 10 µM [activator, single point] | 
Cc1cc(C)n(CC(O)CN2c3ccccc3Sc3ccccc32)n1 (centres undefined) | inconclusive: 18.4 µM [inhibitor, single point] | 
N=C1/C(=C/c2ccco2)C(=O)N=C2SC(CC(=O)N3CCCC3)=NN12 | inconclusive: 23.1 µM [activator, partial curve, poor fit] | 
Cc1cnc(C(=O)Nc2ccccc2-n2cccc2)cn1 | inconclusive: 1.16 µM [inhibitor, single point] | 
O=C(NCc1ccco1)C1CCN(c2nnc(-n3cccc3)s2)CC1 | inconclusive: 0.0052 µM [activator, full curve, poor fit] | 

Quoted at random: 2 compounds from above, in no set order.
SMILES | Potency | activity change, negative = inhibition
Cc1cnc(C(=O)Nc2ccccc2-n2cccc2)cn1 | inconclusive: 1.16 µM [inhibitor, single point] | 
CS(=O)(=O)N1CCN(C(=O)c2cc(-c3cccnc3)nc3ccc(Cl)cc23)CC1 | inconclusive: 29.1 µM [inhibitor, single point] | 
